In US20090298167A1:
Numbering of substitutions follows the chain as printed. Results are given in words; binding and its absence hold for the method and conditions named. Some binding calls cover weakened binding; strength is not graded here.

Chains of the proteins cited; added tags and fusions are not shown. Lines headed by an entry give the natural chain unless they say otherwise; changes in a name come on top.
UniProt Q9HBE5: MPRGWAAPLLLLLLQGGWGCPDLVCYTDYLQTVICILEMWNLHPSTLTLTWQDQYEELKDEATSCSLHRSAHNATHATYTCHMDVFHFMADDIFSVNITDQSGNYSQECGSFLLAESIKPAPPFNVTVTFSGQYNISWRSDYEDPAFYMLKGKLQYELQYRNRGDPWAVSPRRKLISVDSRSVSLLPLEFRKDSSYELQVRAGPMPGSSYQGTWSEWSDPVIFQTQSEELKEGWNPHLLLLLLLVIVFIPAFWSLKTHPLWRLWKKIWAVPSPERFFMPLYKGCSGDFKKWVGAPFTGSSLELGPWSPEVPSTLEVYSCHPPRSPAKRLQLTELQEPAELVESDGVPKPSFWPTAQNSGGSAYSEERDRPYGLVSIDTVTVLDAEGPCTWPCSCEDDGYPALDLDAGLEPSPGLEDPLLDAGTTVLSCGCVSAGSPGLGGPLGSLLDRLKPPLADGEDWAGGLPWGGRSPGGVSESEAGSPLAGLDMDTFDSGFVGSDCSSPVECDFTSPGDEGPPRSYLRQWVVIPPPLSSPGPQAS
UniProt Q9JHX3: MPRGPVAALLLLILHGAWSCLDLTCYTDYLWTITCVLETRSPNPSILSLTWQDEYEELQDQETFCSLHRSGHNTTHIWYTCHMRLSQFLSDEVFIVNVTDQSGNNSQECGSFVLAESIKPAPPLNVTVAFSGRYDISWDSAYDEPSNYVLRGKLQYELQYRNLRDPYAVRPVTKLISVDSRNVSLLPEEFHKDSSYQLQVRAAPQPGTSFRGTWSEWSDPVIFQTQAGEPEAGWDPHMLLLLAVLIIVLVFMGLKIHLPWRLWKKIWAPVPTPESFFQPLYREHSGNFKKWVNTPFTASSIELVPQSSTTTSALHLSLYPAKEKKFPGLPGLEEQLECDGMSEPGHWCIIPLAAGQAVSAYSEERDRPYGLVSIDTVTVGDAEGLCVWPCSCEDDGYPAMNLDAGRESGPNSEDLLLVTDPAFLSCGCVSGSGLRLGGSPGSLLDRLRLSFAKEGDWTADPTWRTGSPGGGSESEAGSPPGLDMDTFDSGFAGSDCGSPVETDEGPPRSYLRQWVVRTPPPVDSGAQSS

B1: AbS (antibody, human IgG1, V domains shown)
VH: QVQLQESGPGLVKPSETLSLTCAVSGYSISSGYYWGWIRQPPGKGLEWIGSISHTGNTYYNPPLKSRVTISVDTSKNQFSLKLSSVTAADTAVYYCARGGGISRPEYWGQGTLVTVSS
VL: SSELTQDPAVSVALGQTVRITCQGDSLRTYYASWYQQKPGQAPVLVIYGKHKRPSGIPDRFSGSSSGNTASLTITGAQAEDEADYYCMSRSIWGNPHVLFGGGTQLTVL
B2: AbU (antibody, human IgG1, V domains shown)
VH: B1 VH
VL: B1 VL with M88T, S89T, I92N, W93K
B3: AbH (antibody, human IgG1, V domains shown)
VH: B1 VH
VL: B1 VL with M88V, S89A, S91A, I92V, W93R
B4: AbT (antibody, human IgG1, V domains shown)
VH: B1 VH
VL: B1 VL with M88V, S89A, I92N, W93K
B5: AbC (antibody, human IgG1, V domains shown)
VH: B1 VH
VL: B1 VL with M88S, I92R, W93H
B6: AbJ (antibody, human IgG1, V domains shown)
VH: B1 VH with G99F, G100M, I102F, S103G
VL: B1 VL with M88N, S91D, I92S, W93S
B7: AbG (antibody, human IgG1, V domains shown)
VH: B1 VH
VL: B1 VL with M88V, S89T, I92V, W93K
B8: AbP (antibody, human IgG1, V domains shown)
VH: B1 VH
VL: B1 VL with M88V, I92A, W93K
B9: AbR (antibody, human IgG1, V domains shown)
VH: B1 VH with G99F, G100M, I102F, S103G
VL: B1 VL with M88V, S89T, I92V, W93K
B10: AbF (antibody, human IgG1, V domains shown)
VH: B1 VH
VL: B1 VL with M88S, S89T, I92R, W93K
B11: AbD (antibody, human IgG1, V domains shown)
VH: B1 VH
VL: B1 VL with M88V, S89T, S91N, I92R, W93Y
B12: AbK (antibody, human IgG1, V domains shown)
VH: B1 VH with G99F, G100M, I102F, S103G
VL: B1 VL with M88V, S91A, I92V, W93V
B13: AbO (antibody, human IgG1, V domains shown)
VH: B1 VH
VL: B1 VL with M88V, S89T, I92A, W93K
B14: AbA (antibody, human IgG1, V domains shown)
VH: B1 VH
VL: B1 VL with M88V, S89A, I92V, W93V
B15: AbB (antibody, human IgG1, V domains shown)
VH: B1 VH
VL: B1 VL with M88V, S91A, I92V, W93V
B16: AbQ (antibody, human IgG1, V domains shown)
VH: B1 VH with G99F, G100M, I102F, S103G
VL: B1 VL with M88V, S89A, I92V, W93V
B17: AbE (antibody, human IgG1, V domains shown)
VH: B1 VH
VL: B1 VL with S89A, I92R, W93K
B18: AbL (antibody, human IgG1, V domains shown)
VH: B1 VH with G99F, G100M, I102F, S103G
VL: B1 VL with M88V, S89T, S91N, I92R, W93Y
B19: AbI (antibody, human IgG1, V domains shown)
VH: B1 VH
VL: B1 VL with M88I, S89A, I92N, W93K
B20: parental 18A5 antibody (antibody, V domains shown)
VH: B1 VH with P14T, Q110K
VL: SSELTQDPPVSVALGQTVTLTCQGDSLRTYYASWYQQKSGQAPILLLYGKHKRPSGIPDRFSGSTSGDTASLTITGAQAEDEADYYCNSRDSSGNPHVLFGGGTQLTVL

biological target: human IL-21R expressed on cells (human) (UniProt Q9HBE5); experiment: cell ELISA on transfected CHO cells

binding | Binder
binds | B1
binds | B2
binds | B3
binds | B4
binds | B5
binds | B6
binds | B7
binds | B8
binds | B9
binds | B10
binds | B11
binds | B12
binds | B13
binds | B14
binds | B15
binds | B16
binds | B17
binds | B18
binds | B19

biological target: human IL-21R extracellular domain His-Flag fusion protein (human) (UniProt Q9HBE5); experiment: BIACORE, antibody immobilised on CM5 chip

binding | Binder
binds | B1
binds | B4

biological target: murine IL-21R extracellular domain His-Flag fusion protein (murine) (UniProt Q9JHX3); experiment: BIACORE, IgG captured, 50 nM murine IL-21R-H/F in flow

binding | Binder
binds | B1
binds | B2
binds | B3
binds | B4
binds | B5
binds | B6
binds | B7
binds | B8
binds | B9
binds | B10
binds | B11
binds | B12
binds | B13
binds | B14
binds | B15
binds | B20
binds | B16
binds | B17
binds | B18
binds | B19

biological target: cynomolgus monkey IL-21R-His/FLAG (cynomolgus monkey) (UniProt G7Q0S8); experiment: BIACORE, IgG captured on anti-human IgG, receptor-H/F in flow

binding | Binder
binds | B1
binds | B4

biological target: human IL-21R extracellular domain His-Flag fusion protein (human) (UniProt Q9HBE5); experiment: as above

binding | Binder
binds | B1
binds | B4

biological target: murine IL-21R extracellular domain His-Flag fusion protein (murine) (UniProt Q9JHX3); experiment: BIACORE, antibody immobilised on CM5 chip, 100 nM murine IL-21R-H/F

binding | Binder
binds | B1
binds | B4
binds | B20

biological target: murine IL-21R extracellular domain His-Flag fusion protein (murine) (UniProt Q9JHX3); experiment: BIACORE: antibody captured on anti-human IgG, 50 nM analyte injected

binding | Binder
binds | B1
binds | B2
binds | B4
binds | B8
binds | B9
binds | B13
binds | B16

biological target: murine IL-21R extracellular domain His-Flag fusion protein (murine) (UniProt Q9JHX3); experiment: BIACORE: AbS immobilised directly on the chip, 100 nM murine IL-21R-H/F injected

binding | Binder
binds | B1

biological target: human IL-21R extracellular domain His-Flag fusion protein (human) (UniProt Q9HBE5); experiment: BIACORE: AbT immobilised directly on the chip (as printed on the sheet), human IL-21R-H/F injected

binding | Binder
binds | B4

biological target: human IL-21R extracellular domain His-Flag fusion protein (human) (UniProt Q9HBE5); experiment: BIACORE: antibody captured on anti-human IgG, series of human IL-21R-His/FLAG concentrations injected

binding | Binder
binds | B1
binds | B2
binds | B4
binds | B8
binds | B9
binds | B13
binds | B20
binds | B16

biological target: murine IL-21R extracellular domain His-Flag fusion protein (murine) (UniProt Q9JHX3); experiment: BIACORE: antibody captured on anti-human IgG, series of murine IL-21R-His/FLAG concentrations injected

binding | Binder
binds | B1
binds | B2
binds | B4
binds | B8
binds | B9
binds | B13
binds | B20
binds | B16

biological target: cynomolgus monkey IL-21R-His/FLAG (cynomolgus monkey) (UniProt G7Q0S8); experiment: BIACORE: antibody captured on anti-human IgG, series of cynomolgus monkey IL-21R-His/FLAG concentrations injected

binding | Binder
binds | B1
binds | B4

biological target: human IL-21R expressed on cells (human) (UniProt Q9HBE5); experiment: cell ELISA: CHO cells transiently expressing the receptor, antibody in conditioned medium, HRP anti-human IgG, A450

binding | Binder
binds | B1
binds | B2
binds | B3
binds | B4
binds | B5
binds | B6
binds | B7
binds | B8
binds | B9
binds | B10
binds | B11
binds | B12
binds | B13
binds | B14
binds | B15
binds | B20
binds | B16
binds | B17
binds | B18
binds | B19

biological target: murine IL-21R-Fc (murine) (UniProt Q9JHX3); experiment: ELISA: mIL-21R-Fc captured on anti-mouse IgG2a; AbS added together with 10 µg/ml mIL-21; AbS detected with anti-human Ig

binding | Binder
binds | B1
